The record followed here is PMC5072578.

Amino acid sequences for entries named in this document (tags omitted).
UniProt P42224: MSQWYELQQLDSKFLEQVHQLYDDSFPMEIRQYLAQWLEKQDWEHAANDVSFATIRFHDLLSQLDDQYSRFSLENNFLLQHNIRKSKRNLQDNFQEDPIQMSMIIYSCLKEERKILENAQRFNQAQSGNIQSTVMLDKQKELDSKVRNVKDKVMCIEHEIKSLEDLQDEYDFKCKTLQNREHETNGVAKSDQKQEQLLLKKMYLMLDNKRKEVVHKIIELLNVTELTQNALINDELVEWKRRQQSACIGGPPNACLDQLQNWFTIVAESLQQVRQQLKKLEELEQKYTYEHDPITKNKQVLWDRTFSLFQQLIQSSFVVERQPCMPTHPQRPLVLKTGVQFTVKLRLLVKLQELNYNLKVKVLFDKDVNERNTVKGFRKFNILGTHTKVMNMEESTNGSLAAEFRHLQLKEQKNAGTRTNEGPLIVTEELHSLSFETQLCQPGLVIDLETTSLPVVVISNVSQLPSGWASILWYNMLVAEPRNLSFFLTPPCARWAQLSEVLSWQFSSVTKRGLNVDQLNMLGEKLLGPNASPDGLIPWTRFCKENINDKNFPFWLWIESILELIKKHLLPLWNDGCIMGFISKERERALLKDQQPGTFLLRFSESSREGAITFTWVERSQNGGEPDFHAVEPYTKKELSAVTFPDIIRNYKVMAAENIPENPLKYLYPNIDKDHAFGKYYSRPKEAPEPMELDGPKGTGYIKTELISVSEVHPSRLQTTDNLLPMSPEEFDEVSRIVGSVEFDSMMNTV

Results are given in words; binding and its absence hold for the method and conditions named. Binding seen in cells or lysates may run through a third protein. Here binding means that the protein was enriched with, or labelled near, the bait; the list need not be complete. Sequences can lack the tags named with a protein.

For the assay, the target named is T1, Flag-NLK (Nemo-like kinase) (mouse) (UniProt O54949).
T1 sequence: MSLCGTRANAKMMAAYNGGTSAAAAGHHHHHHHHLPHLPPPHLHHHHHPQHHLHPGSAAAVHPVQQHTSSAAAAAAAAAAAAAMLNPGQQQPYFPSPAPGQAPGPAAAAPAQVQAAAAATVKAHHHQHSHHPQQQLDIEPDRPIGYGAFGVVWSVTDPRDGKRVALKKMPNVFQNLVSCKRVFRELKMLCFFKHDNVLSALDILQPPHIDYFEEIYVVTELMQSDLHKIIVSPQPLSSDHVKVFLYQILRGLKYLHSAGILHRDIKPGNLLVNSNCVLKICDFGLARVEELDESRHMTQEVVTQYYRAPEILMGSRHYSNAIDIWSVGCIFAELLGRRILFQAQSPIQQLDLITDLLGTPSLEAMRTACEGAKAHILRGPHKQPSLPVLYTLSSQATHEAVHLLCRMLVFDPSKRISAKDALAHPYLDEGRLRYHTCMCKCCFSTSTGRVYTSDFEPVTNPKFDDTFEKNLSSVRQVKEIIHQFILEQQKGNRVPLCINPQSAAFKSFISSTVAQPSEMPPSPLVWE
Description: affinity purification with mass spectrometry; lysate of HEK293 cells transfected with Flag-NLK (20 mM HEPES pH 7.4, 0.5% Triton X-100, 150 mM NaCl, 1 mM EDTA); anti-Flag M2 magnetic beads, 1 hour at room temperature; SDS-PAGE, silver staining, unique proteins identified by mass spectrometry; control: empty Flag plasmid.

“Stat1 (endogenous, HEK293 cells) (from UniProt P42224 1-750)”: the binding result is recorded as “binds”.
